B1: MKL2 (protein, UniProt Q9ULH7 1-1088)
chain: MIDSSKKQQQGFPEILTAGDFEPLKEKECLEGSNQKSLKEVLQLRLQQRRTREQLVDQGIMPPLKSPAAFHEQIKSLERARTENFLKHKIRSRPDRSELVRMHILEETFAEPSLQATQMKLKRARLADDLNEKIAQRPGPMELVEKNILPVDSSVKEAIIGVGKEDYPHTQGDFSFDEDSSDALSPDQPASQESQGSAASPSEPKVSESPSPVTTNTPAQFASVSPTVPEFLKTPPTADQPPPRPAAPVLPTNTVSSAKPGPALVKQSHPKNPNDKHRSKKCKDPKPRVKKLKYHQYIPPDQKGEKNEPQMDSNYARLLQQQQLFLQLQILSQQKQHYNYQTILPAPFKPLNDKNSNSGNSALNNATPNTPRQNTSTPVRKPGPLPSSLDDLKVSELKTELKLRGLPVSGTKPDLIERLKPYQEVNSSGLAAGGIVAVSSSAIVTSNPEVTVALPVTTLHNTVTSSVSTLKAELPPTGTSNATRVENVHSPLPISPSPSEQSSLSTDDTNMADTFTEIMTMMSPSQFLSSSPLRMTNNEDSLSPTSSTLSNLELDAAEKDRKLQEKEKQIEELKRKLEQEQKLVEVLKMQLEVEKRGQQQRPLEAQPSAPGHSVKSDQKHGSLGSSIKDEASLPDCSSSRQPIPVASHAVGQPVSTGGQTLVAKKAVVIKQEVPVGQAEQQSVVSQFYVSSQGQPPPAVVAQPQALLTTQTAQLLLPVSIQGSSVTSVQLPVGSLKLQTSPQAGMQTQPQIATAAQIPTAALASGLAPTVPQTQDTFPQHVLSQPQQVRKVFTNSASSNTVLPYQRHPAPAVQQPFINKASNSVLQSRNAPLPSLQNGPNTPNKPSSPPPPQQFVVQHSLFGSPVAKTKDPPRYEEAIKQTRSTQAPLPEISNAHSQQMDDLFDILIKSGEISLPIKEEPSPISKMRPVTASITTMPVNTVVSRPPPQVQMAPPVSLEPMGSLSASLENQLEAFLDGTLPSANEIPPLQSSSEDREPFSLIEDLQNDLLSHSGMLDHSHSPMETSETQFAAGTPCLSLDLSDSNLDNMEWLDITMPNSSSGLTPLSTTAPSMFSADFLDPQDLPLPWD
B2: PTMA (protein, UniProt P06454 1-111)
chain: MSDAAVDTSSEITTKDLKEKKEVVEEAENGRDAPANGNAENEENGEQEADNEVDEEEEEGGEEEEEEEEGDGEEEDGDEDEEAESATGKRAAEDDEDDDVDTKKQKTDEDD
B3: LUC7L2 (protein, UniProt Q9Y383 1-392)
chain: MSAQAQMRAMLDQLMGTSRDGDTTRQRIKFSDDRVCKSHLLNCCPHDVLSGTRMDLGECLKVHDLALRADYEIASKEQDFFFELDAMDHLQSFIADCDRRTEVAKKRLAETQEEISAEVAAKAERVHELNEEIGKLLAKVEQLGAEGNVEESQKVMDEVEKARAKKREAEEVYRNSMPASSFQQQKLRVCEVCSAYLGLHDNDRRLADHFGGKLHLGFIEIREKLEELKRVVAEKQEKRNQERLKRREEREREEREKLRRSRSHSKNPKRSRSREHRRHRSRSMSRERKRRTRSKSREKRHRHRSRSSSRSRSRSHQRSRHSSRDRSRERSKRRSSKERFRDQDLASCDRDRSSRDRSPRDRDRKDKKRSYESANGRSEDRRSSEEREAGEI
B4: HNRNPM (protein, UniProt P52272 1-730)
chain: MAAGVEAAAEVAATEIKMEEESGAPGVPSGNGAPGPKGEGERPAQNEKRKEKNIKRGGNRFEPYANPTKRYRAFITNIPFDVKWQSLKDLVKEKVGEVTYVELLMDAEGKSRGCAVVEFKMEESMKKAAEVLNKHSLSGRPLKVKEDPDGEHARRAMQKVMATTGGMGMGPGGPGMITIPPSILNNPNIPNEIIHALQAGRLGSTVFVANLDYKVGWKKLKEVFSMAGVVVRADILEDKDGKSRGIGTVTFEQSIEAVQAISMFNGQLLFDRPMHVKMDERALPKGDFFPPERPQQLPHGLGGIGMGLGPGGQPIDANHLNKGIGMGNIGPAGMGMEGIGFGINKMGGMEGPFGGGMENMGRFGSGMNMGRINEILSNALKRGEIIAKQGGGGGGGSVPGIERMGPGIDRLGGAGMERMGAGLGHGMDRVGSEIERMGLVMDRMGSVERMGSGIERMGPLGLDHMASSIERMGQTMERIGSGVERMGAGMGFGLERMAAPIDRVGQTIERMGSGVERMGPAIERMGLSMERMVPAGMGAGLERMGPVMDRMATGLERMGANNLERMGLERMGANSLERMGLERMGANSLERMGPAMGPALGAGIERMGLAMGGGGGASFDRAIEMERGNFGGSFAGSFGGAGGHAPGVARKACQIFVRNLPFDFTWKMLKDKFNECGHVLYADIKMENGKSKGCGVVKFESPEVAERACRMMNGMKLSGREIDVRIDRNA
B5: ATPO (protein, UniProt P48047 24-213)
chain: FAKLVRPPVQVYGIEGRYATALYSAASKQNKLEQVEKELLRVAQILKEPKVAASVLNPYVKRSIKVKSLNDITAKERFSPLTTNLINLLAENGRLSNTQGVVSAFSTMMSVHRGEVPCTVTSASPLEEATLSELKTVLKSFLSQGQVLKLEAKTDPSILGGMIVRIGEKYVDMSVKTKIQKLGRAMREIV
B6: DCD (protein, UniProt P81605 20-110)
chain: YDPEAASAPGSGNPCHEASAAQKENAGEDPGLARQAPKPRKQRSSLLEKGLDGAKKAVGGLGKLGKDAVEDLESVGKGAVHDVKDVLDSVL

Protein sequences, listed by entry. Tags and fused reporters are not part of them.
UniProt Q14152: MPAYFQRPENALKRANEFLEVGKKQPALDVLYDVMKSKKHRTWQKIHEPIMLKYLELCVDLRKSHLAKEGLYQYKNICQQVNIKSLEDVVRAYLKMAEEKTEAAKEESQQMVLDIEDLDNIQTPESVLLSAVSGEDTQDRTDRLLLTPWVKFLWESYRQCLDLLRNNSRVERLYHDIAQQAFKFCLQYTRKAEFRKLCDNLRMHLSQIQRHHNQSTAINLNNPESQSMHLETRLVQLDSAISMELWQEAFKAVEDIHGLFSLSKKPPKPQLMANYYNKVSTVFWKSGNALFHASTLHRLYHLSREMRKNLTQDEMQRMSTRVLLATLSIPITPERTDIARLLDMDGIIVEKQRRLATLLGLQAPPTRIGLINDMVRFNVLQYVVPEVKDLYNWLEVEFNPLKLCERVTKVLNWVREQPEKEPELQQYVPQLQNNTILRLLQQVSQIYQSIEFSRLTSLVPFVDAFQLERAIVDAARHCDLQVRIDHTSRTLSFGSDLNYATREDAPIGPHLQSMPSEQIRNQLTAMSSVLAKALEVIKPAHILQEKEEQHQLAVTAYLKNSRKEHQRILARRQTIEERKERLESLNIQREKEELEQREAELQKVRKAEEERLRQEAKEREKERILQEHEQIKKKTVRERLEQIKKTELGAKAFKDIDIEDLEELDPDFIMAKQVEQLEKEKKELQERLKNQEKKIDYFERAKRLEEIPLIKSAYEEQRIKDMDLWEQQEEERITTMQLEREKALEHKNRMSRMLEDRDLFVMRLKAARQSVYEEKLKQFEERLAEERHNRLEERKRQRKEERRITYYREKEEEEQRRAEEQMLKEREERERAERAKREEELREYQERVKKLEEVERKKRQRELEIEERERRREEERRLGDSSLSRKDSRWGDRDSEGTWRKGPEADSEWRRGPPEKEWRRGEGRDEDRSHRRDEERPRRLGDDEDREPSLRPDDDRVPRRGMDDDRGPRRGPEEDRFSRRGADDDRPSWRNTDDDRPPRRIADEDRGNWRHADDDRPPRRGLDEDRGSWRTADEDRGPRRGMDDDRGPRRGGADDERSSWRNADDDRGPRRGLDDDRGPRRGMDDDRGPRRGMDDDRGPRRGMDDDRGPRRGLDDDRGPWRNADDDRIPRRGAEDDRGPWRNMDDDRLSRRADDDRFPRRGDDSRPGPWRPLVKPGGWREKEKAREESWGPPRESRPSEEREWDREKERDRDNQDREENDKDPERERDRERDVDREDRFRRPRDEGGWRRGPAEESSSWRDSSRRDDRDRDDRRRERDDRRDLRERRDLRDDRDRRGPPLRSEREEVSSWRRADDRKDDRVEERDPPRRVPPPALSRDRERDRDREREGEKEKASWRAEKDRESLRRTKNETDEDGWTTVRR

No constants are given. Whether binding was seen depends on the method and setting. In cells and extracts the contact can be indirect. Here binding means that the protein was enriched with, or labelled near, the bait; the list need not be complete. For part of these data: Tags and fused reporters may be left off the sequences shown.

The first assay concerns the target myc-BirA*-eIF3A fusion protein (UniProt Q14152). Kind of assay: proximity labelling; BioID: myc-BirA*-eIF3A against the myc-BirA* control, transiently transfected HEK-293T and HCT-116 cells, 50 µM biotin for 6 h or 24 h; RIPA lysate, streptavidin magnetic beads, washes with 8 M urea, 1% Triton, 0.5 M NaCl, 20% acetonitrile; on-bead trypsin digestion, LC-MS/MS, label-free ratio BirA*-eIF3A to BirA* above 1.5; some hits also kept in cells pre-treated with 1 µM thapsigargin.
On to B1, for which the binding result was “binds”. For the molecule B2, the binding result is on record as “binds”.

In the case of B3, the binding result is “binds”. As to B4, the binding entry was “binds”. On the same count and under the same terms, in the case of B5 it was “binds”.

The next assay has the same target. The assay is described as follows: proximity labelling; BioID as a1, but cells treated with 1 µM thapsigargin (ER stress) for 3 h before biotin for 6 h or 24 h.
For B6, the binding result is “binds”.

The record behind these values is publication PMC7999522.
